Assay results from US9908895B2, “Tricyclic fused thiophene derivatives as JAK inhibitors” (Incyte Corporation, priority 2012, dated 2018).
Where a name gives a salt, the structure may show the parent alone. At least one compound was matched to its structure with a doubt left.

By UniProt entry, the sequences of proteins in these tests, tags left out. Residues count along the entry.
UniProt O60674, 828-1132: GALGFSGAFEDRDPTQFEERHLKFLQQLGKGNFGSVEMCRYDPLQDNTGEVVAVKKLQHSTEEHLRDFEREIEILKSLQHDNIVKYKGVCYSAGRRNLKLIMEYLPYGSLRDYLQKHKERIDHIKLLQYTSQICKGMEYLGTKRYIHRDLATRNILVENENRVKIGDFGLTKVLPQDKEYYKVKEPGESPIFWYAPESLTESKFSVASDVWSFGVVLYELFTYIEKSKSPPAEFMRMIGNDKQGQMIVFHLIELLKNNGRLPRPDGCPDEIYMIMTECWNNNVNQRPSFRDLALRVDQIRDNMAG

Experiments:
human JAK2 = human JAK2 (Homo sapiens (Human), UniProt O60674); experiment: In vitro JAK kinase assay (HTRF), JAK2; type: biochemical; parameters: key to the marks not given beside the values; conditions: 1 mM ATP
Experimental: (§1) Compounds herein were tested for inhibitory activity of JAK targets according to the following in vitro assay described in Park et al., Analytical Biochemistry 1999, 269, 94-104. The catalytic domains of human JAK1 (a.a. 837-1142), JAK2 (a.a. 828-1132) and JAK3 (a.a. 781-1124) were expressed using baculovirus in insect cells and purified. The catalytic activity of JAK1, JAK2 or JAK3 was assayed by measuring the phosphorylation of a biotinylated peptide. The phosphorylated peptide was detected by homogenous time resolved fluorescence (HTRF). IC50s of compounds were measured for each kinase in the 40 μL reactions that contain the enzyme, ATP and 500 nM peptide in 50 mM Tris (pH 7.8) buffer with 100 mM NaCl, 5 mM DTT, and 0.1 mg/mL (0.01%) BSA. For the 1 mM IC50 measurements, ATP concentration in the reactions was 1 mM. Reactions were carried out at room temperature for 1 hour and then stopped with 20 μL 45 mM EDTA, 300 nM SA-APC, 6 nM Eu-Py20 in assay buffer (Perkin Elmer, Boston, Mass.). Binding to the Europium labeled antibody took place for 40 minutes and HTRF signal was measured on a PHERA star plate reader (BMG, Cary, N.C.). The Example compounds were each tested in the Example A assay (see Table 1 for data for the compounds of the examples as tested by the assay of Example A at 1 mM ATP).

human JAK1 = experiment: In vitro JAK kinase assay (HTRF), JAK1; type: biochemical; conditions: ratio of JAK2 IC50 to JAK1 IC50 at 1 mM ATP
Experimental: as §1

Structure (SMILES) | JAK2 IC50 (nM) (human JAK2) | JAK2/JAK1 (human JAK1)
Cc1nc2cnc3ccsc3c2n1[C@@H]1CC[C@@H](CC#N)[C@H](O)C1.Cc1nc2cnc3ccsc3c2n1[C@H]1CC[C@H](CC#N)[C@@H](O)C1 (mixture of isomers) [41 (second peak), [(1R,2S,4S)-4-(2-Methyl-1H-imidazo[4,5-d]thieno[3,2-b]pyridin-1-yl)-2-hydroxycyclohexyl]acetonitrile and [(1S,2R,4R)-4-(2-methyl-1H-imidazo[4,5-d]thieno[3,2-b]pyridin-1-yl)-2-hydroxycyclohexyl]acetonitrile] | +++++ | 
Cc1nc2cnc3ccsc3c2n1[C@H]1CC[C@H](CC#N)[C@H](O)C1 (mixture of isomers) [Example 34, Mixture of [(1R,2R,4S)-2-hydroxy-4-(2-methyl-1H-imidazo[4,5-d]thieno[3,2-b]pyridin-1-yl)cyclohexyl]acetonitrile trifluoroacetate and [(1S,2S,4R)-2-hydroxy-4-(2-methyl-1H-imidazo[4,5-d]thieno[3,2-b]pyridin-1-yl)cyclohexyl]acetonitrile trifluoroacetate] |  | >10
C[C@@H](O)c1cc2cnc3ccsc3c2n1[C@H]1CC[C@H](CC#N)CC1 [Example 23, (trans-4-{7-[(1R)-1-Hydroxyethyl]-8H-pyrrolo[2,3-d]thieno[3,2-b]pyridin-8-yl}cyclohexyl)acetonitrile] |  | >10
Cc1nn2cnc3ccsc3c2c1-c1ccc(CC#N)cc1 [Example 46, [4-(8-Methylpyrazolo[1,5-c]thieno[2,3-e]pyrimidin-9-yl)phenyl]acetonitrile] |  | >3
Cc1nn2cnc3ccsc3c2c1[C@H]1CC[C@H](CC#N)CC1 [Example 77, [trans-4-(8-Methylpyrazolo[1,5-c]thieno[2,3-e]pyrimidin-9-yl)cyclohexyl]acetonitrile] |  | >5
